{"sequences": {"note": "Protein sequences, listed by entry. Tags and fused reporters are not part of them. Lines headed by an entry give the natural chain unless they say otherwise; changes in a name come on top.", "UniProt Q9BRV8": "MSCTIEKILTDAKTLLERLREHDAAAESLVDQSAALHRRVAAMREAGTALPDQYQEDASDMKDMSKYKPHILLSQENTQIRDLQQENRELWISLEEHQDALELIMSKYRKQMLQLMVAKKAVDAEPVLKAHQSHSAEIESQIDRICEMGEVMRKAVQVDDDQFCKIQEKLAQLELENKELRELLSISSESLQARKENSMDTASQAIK", "UniProt Q9UBX3": "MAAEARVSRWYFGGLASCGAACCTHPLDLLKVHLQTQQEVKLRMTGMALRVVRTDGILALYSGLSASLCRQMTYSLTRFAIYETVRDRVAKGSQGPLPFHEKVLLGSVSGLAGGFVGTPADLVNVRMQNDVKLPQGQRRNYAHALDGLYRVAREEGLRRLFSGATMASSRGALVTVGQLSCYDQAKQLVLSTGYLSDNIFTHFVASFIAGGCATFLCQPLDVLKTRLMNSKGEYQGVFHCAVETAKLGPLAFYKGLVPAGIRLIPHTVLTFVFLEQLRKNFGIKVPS", "UniProt Q16181": "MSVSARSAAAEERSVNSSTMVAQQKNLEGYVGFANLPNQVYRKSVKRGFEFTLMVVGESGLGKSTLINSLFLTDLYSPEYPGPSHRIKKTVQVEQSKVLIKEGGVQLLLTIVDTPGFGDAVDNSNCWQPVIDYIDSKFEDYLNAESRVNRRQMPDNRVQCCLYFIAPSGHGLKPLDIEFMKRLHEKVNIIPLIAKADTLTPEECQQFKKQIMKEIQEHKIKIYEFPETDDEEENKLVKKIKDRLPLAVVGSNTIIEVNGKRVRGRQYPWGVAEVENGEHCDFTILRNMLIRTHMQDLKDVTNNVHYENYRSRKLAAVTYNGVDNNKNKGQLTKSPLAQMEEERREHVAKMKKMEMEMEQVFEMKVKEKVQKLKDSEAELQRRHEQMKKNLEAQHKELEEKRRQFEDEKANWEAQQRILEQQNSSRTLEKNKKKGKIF", "UniProt Q99961": "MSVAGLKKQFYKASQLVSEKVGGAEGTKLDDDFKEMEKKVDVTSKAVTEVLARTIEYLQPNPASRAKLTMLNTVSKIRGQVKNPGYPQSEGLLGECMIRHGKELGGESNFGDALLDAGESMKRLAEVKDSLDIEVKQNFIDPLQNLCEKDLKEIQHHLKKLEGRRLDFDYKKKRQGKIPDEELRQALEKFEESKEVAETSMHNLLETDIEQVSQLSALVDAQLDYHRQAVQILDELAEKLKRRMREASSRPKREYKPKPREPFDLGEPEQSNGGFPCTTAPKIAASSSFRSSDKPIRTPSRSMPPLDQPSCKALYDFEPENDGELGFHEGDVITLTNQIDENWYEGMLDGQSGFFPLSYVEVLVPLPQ", "UniProt Q96FS4": "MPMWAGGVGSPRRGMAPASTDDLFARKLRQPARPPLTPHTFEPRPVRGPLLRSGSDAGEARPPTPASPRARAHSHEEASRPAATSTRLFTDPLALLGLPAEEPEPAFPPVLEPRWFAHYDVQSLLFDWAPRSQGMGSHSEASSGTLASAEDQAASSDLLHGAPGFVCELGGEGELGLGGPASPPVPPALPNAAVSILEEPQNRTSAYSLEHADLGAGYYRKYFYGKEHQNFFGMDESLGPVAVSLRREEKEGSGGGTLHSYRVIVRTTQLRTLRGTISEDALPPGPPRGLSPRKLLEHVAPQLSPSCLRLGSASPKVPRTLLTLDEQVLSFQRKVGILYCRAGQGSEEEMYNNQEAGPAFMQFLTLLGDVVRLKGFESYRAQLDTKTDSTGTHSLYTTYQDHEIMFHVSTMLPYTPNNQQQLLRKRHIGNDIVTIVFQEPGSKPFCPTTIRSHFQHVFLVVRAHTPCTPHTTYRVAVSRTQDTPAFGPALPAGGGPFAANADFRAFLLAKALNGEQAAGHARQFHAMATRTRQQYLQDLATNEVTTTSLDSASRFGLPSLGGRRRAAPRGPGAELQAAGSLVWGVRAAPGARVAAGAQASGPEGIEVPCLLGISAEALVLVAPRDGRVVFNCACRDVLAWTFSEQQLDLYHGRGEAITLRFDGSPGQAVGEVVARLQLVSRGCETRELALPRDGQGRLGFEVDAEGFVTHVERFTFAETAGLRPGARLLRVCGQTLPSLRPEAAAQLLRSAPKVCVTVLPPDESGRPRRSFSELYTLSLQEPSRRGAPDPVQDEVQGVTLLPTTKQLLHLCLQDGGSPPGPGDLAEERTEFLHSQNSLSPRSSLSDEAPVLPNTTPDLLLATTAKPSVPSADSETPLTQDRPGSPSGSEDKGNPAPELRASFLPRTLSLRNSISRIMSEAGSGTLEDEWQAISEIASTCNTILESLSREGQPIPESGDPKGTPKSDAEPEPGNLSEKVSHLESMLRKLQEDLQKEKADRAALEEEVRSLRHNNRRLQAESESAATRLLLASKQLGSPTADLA", "UniProt Q8WTS6": "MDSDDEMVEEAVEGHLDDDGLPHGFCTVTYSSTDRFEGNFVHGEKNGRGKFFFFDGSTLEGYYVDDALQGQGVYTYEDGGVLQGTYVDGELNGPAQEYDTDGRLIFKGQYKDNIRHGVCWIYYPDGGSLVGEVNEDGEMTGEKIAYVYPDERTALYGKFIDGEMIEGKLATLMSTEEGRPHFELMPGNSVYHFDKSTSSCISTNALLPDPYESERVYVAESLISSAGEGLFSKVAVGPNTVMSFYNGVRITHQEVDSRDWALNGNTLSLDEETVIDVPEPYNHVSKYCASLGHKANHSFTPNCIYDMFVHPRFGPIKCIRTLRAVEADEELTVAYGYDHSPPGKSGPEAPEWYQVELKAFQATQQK", "UniProt Q9UHJ3": "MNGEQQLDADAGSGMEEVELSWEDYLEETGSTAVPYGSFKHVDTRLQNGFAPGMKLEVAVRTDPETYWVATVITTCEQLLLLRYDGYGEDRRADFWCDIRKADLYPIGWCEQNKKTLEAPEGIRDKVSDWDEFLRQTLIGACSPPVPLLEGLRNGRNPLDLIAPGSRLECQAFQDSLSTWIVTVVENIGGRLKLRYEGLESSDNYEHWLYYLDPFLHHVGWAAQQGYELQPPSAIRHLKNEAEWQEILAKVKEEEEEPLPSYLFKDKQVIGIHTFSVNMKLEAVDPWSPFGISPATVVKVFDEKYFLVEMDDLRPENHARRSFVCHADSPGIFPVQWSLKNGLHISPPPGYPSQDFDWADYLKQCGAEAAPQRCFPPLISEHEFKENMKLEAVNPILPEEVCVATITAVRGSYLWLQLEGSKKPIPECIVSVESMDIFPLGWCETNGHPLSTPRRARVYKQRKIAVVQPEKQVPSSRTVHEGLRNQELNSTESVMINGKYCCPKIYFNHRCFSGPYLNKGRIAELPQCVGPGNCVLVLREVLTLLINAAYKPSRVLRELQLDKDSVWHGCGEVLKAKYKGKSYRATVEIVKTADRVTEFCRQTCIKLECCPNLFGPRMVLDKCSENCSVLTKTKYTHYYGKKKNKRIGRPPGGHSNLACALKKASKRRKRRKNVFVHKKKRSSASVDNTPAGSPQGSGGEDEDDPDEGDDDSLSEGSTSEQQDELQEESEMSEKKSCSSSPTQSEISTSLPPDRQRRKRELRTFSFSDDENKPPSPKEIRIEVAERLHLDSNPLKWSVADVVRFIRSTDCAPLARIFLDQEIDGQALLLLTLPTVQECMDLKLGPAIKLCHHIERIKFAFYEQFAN", "UniProt Q12872": "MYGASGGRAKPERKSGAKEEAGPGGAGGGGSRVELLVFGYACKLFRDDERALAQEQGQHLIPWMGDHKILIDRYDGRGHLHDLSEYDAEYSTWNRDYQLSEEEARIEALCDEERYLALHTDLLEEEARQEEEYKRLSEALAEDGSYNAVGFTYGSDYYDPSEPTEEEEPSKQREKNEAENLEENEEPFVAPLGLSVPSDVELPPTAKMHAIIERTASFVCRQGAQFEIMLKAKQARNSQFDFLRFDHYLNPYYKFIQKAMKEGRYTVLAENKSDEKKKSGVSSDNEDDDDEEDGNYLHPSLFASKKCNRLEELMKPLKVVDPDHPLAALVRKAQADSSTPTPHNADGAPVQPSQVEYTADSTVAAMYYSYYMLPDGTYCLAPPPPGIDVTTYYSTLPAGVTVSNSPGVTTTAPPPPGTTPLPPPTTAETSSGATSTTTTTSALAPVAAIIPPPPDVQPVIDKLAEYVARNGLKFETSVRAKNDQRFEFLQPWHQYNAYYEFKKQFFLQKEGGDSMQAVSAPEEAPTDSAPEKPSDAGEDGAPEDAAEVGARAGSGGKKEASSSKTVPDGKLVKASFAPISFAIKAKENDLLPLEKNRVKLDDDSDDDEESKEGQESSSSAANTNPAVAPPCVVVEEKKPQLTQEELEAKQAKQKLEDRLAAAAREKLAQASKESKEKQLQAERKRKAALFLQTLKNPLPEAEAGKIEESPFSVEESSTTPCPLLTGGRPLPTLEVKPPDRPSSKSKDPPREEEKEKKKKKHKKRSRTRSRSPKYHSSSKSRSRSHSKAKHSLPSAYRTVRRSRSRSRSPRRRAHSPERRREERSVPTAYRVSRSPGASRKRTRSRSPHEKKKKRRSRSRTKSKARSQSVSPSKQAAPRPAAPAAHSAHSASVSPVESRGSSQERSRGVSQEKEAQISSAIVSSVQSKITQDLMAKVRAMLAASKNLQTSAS", "UniProt Q9H936": "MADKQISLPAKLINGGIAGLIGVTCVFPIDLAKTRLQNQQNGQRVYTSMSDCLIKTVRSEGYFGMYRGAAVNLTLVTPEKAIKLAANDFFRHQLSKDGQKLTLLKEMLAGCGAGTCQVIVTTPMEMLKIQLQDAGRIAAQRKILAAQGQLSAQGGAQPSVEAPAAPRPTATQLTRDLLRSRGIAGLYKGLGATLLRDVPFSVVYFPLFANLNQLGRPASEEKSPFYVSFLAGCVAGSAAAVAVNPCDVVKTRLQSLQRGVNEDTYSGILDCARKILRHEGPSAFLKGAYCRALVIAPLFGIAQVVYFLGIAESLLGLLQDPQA", "UniProt Q9UHD8": "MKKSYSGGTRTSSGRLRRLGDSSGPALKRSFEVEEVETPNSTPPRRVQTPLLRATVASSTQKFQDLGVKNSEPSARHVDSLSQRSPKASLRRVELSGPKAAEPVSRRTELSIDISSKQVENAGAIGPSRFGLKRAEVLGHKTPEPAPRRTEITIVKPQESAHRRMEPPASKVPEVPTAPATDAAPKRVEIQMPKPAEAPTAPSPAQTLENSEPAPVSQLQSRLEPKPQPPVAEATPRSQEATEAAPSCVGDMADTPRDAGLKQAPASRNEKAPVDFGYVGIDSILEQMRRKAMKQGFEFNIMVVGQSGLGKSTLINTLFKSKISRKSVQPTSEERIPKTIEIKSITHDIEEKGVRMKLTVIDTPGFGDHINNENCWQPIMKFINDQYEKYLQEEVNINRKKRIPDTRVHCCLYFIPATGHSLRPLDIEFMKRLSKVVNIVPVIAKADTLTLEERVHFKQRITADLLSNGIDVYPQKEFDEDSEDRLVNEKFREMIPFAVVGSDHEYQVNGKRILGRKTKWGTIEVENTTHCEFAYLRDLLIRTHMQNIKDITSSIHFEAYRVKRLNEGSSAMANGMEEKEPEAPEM", "UniProt Q8NEM2": "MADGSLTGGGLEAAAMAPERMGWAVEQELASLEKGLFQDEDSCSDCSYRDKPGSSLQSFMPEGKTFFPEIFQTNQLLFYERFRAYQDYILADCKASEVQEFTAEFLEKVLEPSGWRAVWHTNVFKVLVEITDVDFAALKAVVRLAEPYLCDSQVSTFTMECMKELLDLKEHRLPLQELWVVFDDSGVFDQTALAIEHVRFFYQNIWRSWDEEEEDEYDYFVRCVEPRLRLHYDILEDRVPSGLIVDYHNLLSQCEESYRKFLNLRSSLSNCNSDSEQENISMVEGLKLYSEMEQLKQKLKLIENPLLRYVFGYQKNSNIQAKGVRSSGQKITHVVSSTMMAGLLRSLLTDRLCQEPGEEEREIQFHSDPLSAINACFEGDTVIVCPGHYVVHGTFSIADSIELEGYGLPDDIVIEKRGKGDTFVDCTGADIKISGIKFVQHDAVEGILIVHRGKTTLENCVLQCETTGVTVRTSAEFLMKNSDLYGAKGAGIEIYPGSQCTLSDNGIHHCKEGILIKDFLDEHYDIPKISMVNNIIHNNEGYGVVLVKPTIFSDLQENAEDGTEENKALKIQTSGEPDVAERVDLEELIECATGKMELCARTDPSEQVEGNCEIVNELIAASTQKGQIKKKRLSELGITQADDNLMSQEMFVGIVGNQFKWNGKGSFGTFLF", "UniProt P34896": "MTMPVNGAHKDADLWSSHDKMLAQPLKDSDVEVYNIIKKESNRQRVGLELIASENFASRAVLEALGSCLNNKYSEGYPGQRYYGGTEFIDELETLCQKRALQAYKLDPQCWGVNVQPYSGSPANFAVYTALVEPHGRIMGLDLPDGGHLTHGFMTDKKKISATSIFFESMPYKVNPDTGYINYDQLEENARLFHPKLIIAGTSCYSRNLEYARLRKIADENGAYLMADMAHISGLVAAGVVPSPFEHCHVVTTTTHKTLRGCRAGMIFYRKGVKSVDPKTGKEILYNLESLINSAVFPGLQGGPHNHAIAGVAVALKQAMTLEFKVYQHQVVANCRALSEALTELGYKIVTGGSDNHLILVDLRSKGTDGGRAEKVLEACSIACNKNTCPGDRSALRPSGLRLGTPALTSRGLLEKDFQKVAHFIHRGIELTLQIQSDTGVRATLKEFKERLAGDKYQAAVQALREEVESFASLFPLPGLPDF"}, "source": "the supplement of paper PMC12067093", "about": "“Discovery and optimisation of a covalent ligand for TRIM25 and its application to targeted protein ubiquitination” (Chemical Science, 2025)", "compound": "Cc1cc(ccc1-c1ccccc1)C(=O)N1CCCN(CC1)C(=O)CCl [compound 10]", "assay": "probe-labelled cysteine peptide fold change vs DMSO (competition) (log2 fold change); higher = less target engagement (more negative = stronger competition)", "conditions": "THP-1, incubation time: 4 h", "note": "This is one part of the list.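 Also: competitive profiling in live THP-1 cells: cysteine peptides tagged with an iodoacetamide desthiobiotin (IA-DTB) probe, intensity after compound treatment relative to DMSO-treated cells.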"}
{"target": "SIKE1_Q9BRV8_164_AVQVDDDQFCK (UniProt Q9BRV8)", "values": [{"measurement": "probe-labelled cysteine peptide fold change", "setting": "10 µM", "result": 0.0643}, {"measurement": "probe-labelled cysteine peptide fold change", "setting": "50 µM", "result": 0.212}]}
{"target": "SKA1_Q96BD8_29_NCGQEPTLK (UniProt Q96BD8)", "values": [{"measurement": "probe-labelled cysteine peptide fold change", "setting": "10 µM", "result": -0.141}, {"measurement": "probe-labelled cysteine peptide fold change", "setting": "50 µM", "result": -0.337}]}
{"target": "SKP2_Q13309_327_NDCFQEFFQLNYLQHLSLSR (UniProt Q13309)", "values": [{"measurement": "probe-labelled cysteine peptide fold change", "setting": "10 µM", "result": -0.0622}, {"measurement": "probe-labelled cysteine peptide fold change", "setting": "50 µM", "result": -0.141}]}
{"target": "SFMBT2_Q5VUG0_796_CPPTKPEGTEDTKQEEEERLVLESNPLEWTVTDVVR (UniProt Q5VUG0)", "values": [{"measurement": "probe-labelled cysteine peptide fold change", "setting": "10 µM", "result": 0.17}, {"measurement": "probe-labelled cysteine peptide fold change", "setting": "50 µM", "result": 0.0601}]}
{"target": "SEPT5_Q99719_300_DVTCDVHYENYR (UniProt Q99719)", "values": [{"measurement": "probe-labelled cysteine peptide fold change", "setting": "10 µM", "result": -0.0149}, {"measurement": "probe-labelled cysteine peptide fold change", "setting": "50 µM", "result": 0.168}]}
{"target": "SLC25A10_Q9UBX3_240_GEYQGVFHCAVETAK (UniProt Q9UBX3)", "values": [{"measurement": "probe-labelled cysteine peptide fold change", "setting": "10 µM", "result": 0.0083}, {"measurement": "probe-labelled cysteine peptide fold change", "setting": "50 µM", "result": 0.118}]}
{"target": "SEPT7_Q16181_160_VQCCLYFIAPSGHGLK (UniProt Q16181)", "values": [{"measurement": "probe-labelled cysteine peptide fold change", "setting": "10 µM", "result": 0.0433}, {"measurement": "probe-labelled cysteine peptide fold change", "setting": "50 µM", "result": -0.0577}]}
{"target": "SKP1_P63208_160_ENQWCEEK (UniProt P63208)", "values": [{"measurement": "probe-labelled cysteine peptide fold change", "setting": "10 µM", "result": -0.168}, {"measurement": "probe-labelled cysteine peptide fold change", "setting": "50 µM", "result": -0.0981}]}
{"target": "SF1_Q15637_282_CGGAGHIASDCK (UniProt Q15637)", "values": [{"measurement": "probe-labelled cysteine peptide fold change", "setting": "10 µM", "result": 0.0635}, {"measurement": "probe-labelled cysteine peptide fold change", "setting": "50 µM", "result": -0.0325}]}
{"target": "SF3B3_Q15393_1179_NVIDGDLCEQFNSMEPNK (UniProt Q15393)", "values": [{"measurement": "probe-labelled cysteine peptide fold change", "setting": "10 µM", "result": -0.393}, {"measurement": "probe-labelled cysteine peptide fold change", "setting": "50 µM", "result": -0.0757}]}
{"target": "SFPQ_P23246_431_CSEGVFLLTTTPRPVIVEPLEQLDDEDGLPEK (UniProt P23246)", "values": [{"measurement": "probe-labelled cysteine peptide fold change", "setting": "10 µM", "result": 0.102}, {"measurement": "probe-labelled cysteine peptide fold change", "setting": "50 µM", "result": 0.462}]}
{"target": "SH3GL1_Q99961_277_PREPFDLGEPEQSNGGFPCTTAPK (UniProt Q99961)", "values": [{"measurement": "probe-labelled cysteine peptide fold change", "setting": "10 µM", "result": -0.116}, {"measurement": "probe-labelled cysteine peptide fold change", "setting": "50 µM", "result": -0.627}]}
{"target": "SIPA1_Q96FS4_811_QLLHLCLQDGGSPPGPGDLAEER (UniProt Q96FS4)", "values": [{"measurement": "probe-labelled cysteine peptide fold change", "setting": "10 µM", "result": 0.15}, {"measurement": "probe-labelled cysteine peptide fold change", "setting": "50 µM", "result": -0.172}]}
{"target": "SIPA1_Q96FS4_632_VVFNCACR (UniProt Q96FS4)", "values": [{"measurement": "probe-labelled cysteine peptide fold change", "setting": "10 µM", "result": 0.0656}, {"measurement": "probe-labelled cysteine peptide fold change", "setting": "50 µM", "result": -0.131}]}
{"target": "SHC1_P29353-6_416_QMPPPPPCPAGR (UniProt P29353)", "values": [{"measurement": "probe-labelled cysteine peptide fold change", "setting": "10 µM", "result": -0.26}, {"measurement": "probe-labelled cysteine peptide fold change", "setting": "50 µM", "result": -0.557}]}
{"target": "SLC25A3_Q00325-2_67+75_YYALCGFGGVLSCGLTHTAVVPLDLVK (UniProt Q00325)", "values": [{"measurement": "probe-labelled cysteine peptide fold change", "setting": "10 µM", "result": 0.149}, {"measurement": "probe-labelled cysteine peptide fold change", "setting": "50 µM", "result": -0.147}]}
{"target": "SETX_Q7Z333_1565_NQGEYCPK (UniProt Q7Z333)", "values": [{"measurement": "probe-labelled cysteine peptide fold change", "setting": "10 µM", "result": -0.228}, {"measurement": "probe-labelled cysteine peptide fold change", "setting": "50 µM", "result": -0.146}]}
{"target": "SETD7_Q8WTS6_303_ANHSFTPNCIYDMFVHPR (UniProt Q8WTS6)", "values": [{"measurement": "probe-labelled cysteine peptide fold change", "setting": "10 µM", "result": -0.214}, {"measurement": "probe-labelled cysteine peptide fold change", "setting": "50 µM", "result": 0.0544}]}
{"target": "SFMBT1_Q9UHJ3_365_QCGAEAAPQR (UniProt Q9UHJ3)", "values": [{"measurement": "probe-labelled cysteine peptide fold change", "setting": "10 µM", "result": -0.105}, {"measurement": "probe-labelled cysteine peptide fold change", "setting": "50 µM", "result": -0.199}]}
{"target": "SF3B1_O75533_1250_MLQYCLQGLFHPAR (UniProt O75533)", "values": [{"measurement": "probe-labelled cysteine peptide fold change", "setting": "10 µM", "result": 0.00594}, {"measurement": "probe-labelled cysteine peptide fold change", "setting": "50 µM", "result": 0.056}]}
{"target": "SETDB1_Q15047_781_RLEECLPTGVYECNKR (UniProt Q15047)", "values": [{"measurement": "probe-labelled cysteine peptide fold change", "setting": "10 µM", "result": 0.0271}, {"measurement": "probe-labelled cysteine peptide fold change", "setting": "50 µM", "result": -0.403}]}
{"target": "SFSWAP_Q12872_307_CNRLEELMK (UniProt Q12872)", "values": [{"measurement": "probe-labelled cysteine peptide fold change", "setting": "10 µM", "result": -0.382}, {"measurement": "probe-labelled cysteine peptide fold change", "setting": "50 µM", "result": -1.12}]}
{"target": "SGK3_Q96BR1_308_DLKPENILLDSVGHVVLTDFGLCK (UniProt Q96BR1)", "values": [{"measurement": "probe-labelled cysteine peptide fold change", "setting": "10 µM", "result": -0.16}, {"measurement": "probe-labelled cysteine peptide fold change", "setting": "50 µM", "result": -0.702}]}
{"target": "SF3A2_Q15428_59_LCLTLHNNEGSYLAHTQGK (UniProt Q15428)", "values": [{"measurement": "probe-labelled cysteine peptide fold change", "setting": "10 µM", "result": -0.0247}, {"measurement": "probe-labelled cysteine peptide fold change", "setting": "50 µM", "result": -0.402}]}
{"target": "SKAP2_O75563_185_DCCFEISAPDKR (UniProt O75563)", "values": [{"measurement": "probe-labelled cysteine peptide fold change", "setting": "10 µM", "result": 0.0253}, {"measurement": "probe-labelled cysteine peptide fold change", "setting": "50 µM", "result": -0.338}]}
{"target": "SLC25A22_Q9H936_116_EMLAGCGAGTCQVIVTTPMEMLK (UniProt Q9H936)", "values": [{"measurement": "probe-labelled cysteine peptide fold change", "setting": "10 µM", "result": 0.343}, {"measurement": "probe-labelled cysteine peptide fold change", "setting": "50 µM", "result": -0.0416}]}
{"target": "SEPT9_Q9UHD8_531_TKWGTIEVENTTHCEFAYLR (UniProt Q9UHD8)", "values": [{"measurement": "probe-labelled cysteine peptide fold change", "setting": "10 µM", "result": -0.0155}, {"measurement": "probe-labelled cysteine peptide fold change", "setting": "50 µM", "result": -0.371}]}
{"target": "SIN3A_Q96ST3_425_PQRPSQNGCQIR (UniProt Q96ST3)", "values": [{"measurement": "probe-labelled cysteine peptide fold change", "setting": "10 µM", "result": -0.158}, {"measurement": "probe-labelled cysteine peptide fold change", "setting": "50 µM", "result": -0.258}]}
{"target": "SETDB1_Q15047_385_RCEWIYR (UniProt Q15047)", "values": [{"measurement": "probe-labelled cysteine peptide fold change", "setting": "10 µM", "result": 0.221}, {"measurement": "probe-labelled cysteine peptide fold change", "setting": "50 µM", "result": 0.291}]}
{"target": "SKA3_Q8IX90_215_MDDFECVTPK (UniProt Q8IX90)", "values": [{"measurement": "probe-labelled cysteine peptide fold change", "setting": "10 µM", "result": -0.222}, {"measurement": "probe-labelled cysteine peptide fold change", "setting": "50 µM", "result": 0.00308}]}
{"target": "SIK3_Q9Y2K2_655_QLQQECEQLQK (UniProt Q9Y2K2)", "values": [{"measurement": "probe-labelled cysteine peptide fold change", "setting": "10 µM", "result": 0.117}, {"measurement": "probe-labelled cysteine peptide fold change", "setting": "50 µM", "result": -0.233}]}
{"target": "SHCBP1_Q8NEM2_591_IQTSGEPDVAERVDLEELIECATGK (UniProt Q8NEM2)", "values": [{"measurement": "probe-labelled cysteine peptide fold change", "setting": "10 µM", "result": -0.559}, {"measurement": "probe-labelled cysteine peptide fold change", "setting": "50 µM", "result": -0.255}]}
{"target": "SH3BP5L_Q7L8J4_178_NRLDPTWQEMLNHATCK (UniProt Q7L8J4)", "values": [{"measurement": "probe-labelled cysteine peptide fold change", "setting": "10 µM", "result": 0.0677}, {"measurement": "probe-labelled cysteine peptide fold change", "setting": "50 µM", "result": -0.0342}]}
{"target": "SETD1B_Q9UPS6_1746_EHVTGCAR (UniProt Q9UPS6)", "values": [{"measurement": "probe-labelled cysteine peptide fold change", "setting": "10 µM", "result": -0.0461}, {"measurement": "probe-labelled cysteine peptide fold change", "setting": "50 µM", "result": 0.0454}]}
{"target": "SHMT1_P34896_335_VYQHQVVANCR (UniProt P34896)", "values": [{"measurement": "probe-labelled cysteine peptide fold change", "setting": "10 µM", "result": 0.00275}, {"measurement": "probe-labelled cysteine peptide fold change", "setting": "50 µM", "result": 0.295}]}
{"target": "SHCBP1_Q8NEM2_591_VDLEELIECATGK (UniProt Q8NEM2)", "values": [{"measurement": "probe-labelled cysteine peptide fold change", "setting": "10 µM", "result": -0.296}, {"measurement": "probe-labelled cysteine peptide fold change", "setting": "50 µM", "result": 0.111}]}
